Source: paper PMC4877712

By UniProt entry, the sequences of proteins in these tests, tags left out. Where a name states a change or a piece, a line headed by the entry shows the natural chain unless it says otherwise.
UniProt P26718: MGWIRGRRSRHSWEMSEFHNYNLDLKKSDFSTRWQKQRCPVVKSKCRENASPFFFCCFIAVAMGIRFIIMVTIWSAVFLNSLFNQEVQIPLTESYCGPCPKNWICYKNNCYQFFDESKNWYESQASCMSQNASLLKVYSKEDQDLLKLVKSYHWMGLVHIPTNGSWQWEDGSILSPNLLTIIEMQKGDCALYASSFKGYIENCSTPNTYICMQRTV

Molecular target: NKG2D (UniProt P26718)
Assay: SEC; ligand and NKG2D mixed at molar ratio 1:2 (0.8 nmol MICA + 1.6 nmol NKG2D; ULBP3 likewise), Superdex 75 10/300 on AktaFPLC; elution profile of the mixture compared with ligand alone and NKG2D alone; both purified

binding: binds
B1: MICA (ligand, UniProt Q29983 24-307)
chain: EPHSLRYNLTVLSWDGSVQSGFLTEVHLDGQPFLRCDRQKCRAKPQGQWAEDVLGNKTWDRETRDLTGNGKDLRMTLAHIKDQKEGLHSLQEIRVCEIHEDNSTRSSQHFYYDGELFLSQNLETKEWTMPQSSRAQTLAMNVRNFLKEDAMKTKTHYHAMHADCLQELRRYLKSGVVLRRTVPPMVNVTRSEASEGNITVTCRASGFYPWNITLSWRQDGVSLSHDTQQWGDVLPDGNGTYQTWVATRICQGEEQRFTCYMEHSGNHSTHPVPSGKVLVLQSHW

These are yes or no findings as the source states them, for the method shown. Binding calls can cover weak binding; strength is not graded here.
